Measured values as given in PMC10861631.
These are yes or no findings as the source states them, for the method shown. In cells and extracts the contact can be indirect. Some entries that bind do so weakly or less than the wild type. Where a sequence is shown, tags or fusion partners need not be part of it.

Protein sequences, listed by entry. Tags and fused reporters are not part of them.
UniProt P11275: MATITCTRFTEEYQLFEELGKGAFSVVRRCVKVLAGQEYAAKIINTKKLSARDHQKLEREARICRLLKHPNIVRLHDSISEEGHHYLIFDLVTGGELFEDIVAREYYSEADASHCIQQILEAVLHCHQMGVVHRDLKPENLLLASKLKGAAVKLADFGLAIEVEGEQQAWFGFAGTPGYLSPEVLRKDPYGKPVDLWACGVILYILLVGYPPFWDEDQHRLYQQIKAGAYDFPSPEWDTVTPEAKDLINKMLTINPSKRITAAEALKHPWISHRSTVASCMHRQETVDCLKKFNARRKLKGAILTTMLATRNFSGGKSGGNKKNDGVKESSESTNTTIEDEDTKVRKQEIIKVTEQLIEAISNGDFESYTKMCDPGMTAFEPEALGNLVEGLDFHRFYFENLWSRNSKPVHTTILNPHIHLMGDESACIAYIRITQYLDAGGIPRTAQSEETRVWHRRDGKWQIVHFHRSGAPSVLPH

Molecular target: T1, mRFP-tagged Shank1 N-terminus (SPN + Ank domains, residues 72-555) (human) (UniProt Q9Y566)
T1 sequence: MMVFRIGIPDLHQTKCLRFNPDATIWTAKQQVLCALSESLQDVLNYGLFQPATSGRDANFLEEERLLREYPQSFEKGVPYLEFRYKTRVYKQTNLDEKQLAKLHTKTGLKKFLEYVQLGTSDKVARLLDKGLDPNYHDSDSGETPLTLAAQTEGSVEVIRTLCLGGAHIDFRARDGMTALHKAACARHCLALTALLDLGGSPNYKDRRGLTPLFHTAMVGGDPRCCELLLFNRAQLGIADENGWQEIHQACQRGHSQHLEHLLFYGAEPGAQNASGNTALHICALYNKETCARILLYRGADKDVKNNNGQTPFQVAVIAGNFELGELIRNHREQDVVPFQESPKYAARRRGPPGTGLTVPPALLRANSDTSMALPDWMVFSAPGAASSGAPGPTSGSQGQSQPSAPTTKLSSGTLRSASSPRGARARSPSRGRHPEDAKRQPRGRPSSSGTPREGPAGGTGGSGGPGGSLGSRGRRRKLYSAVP
Assay: co-IP; mRFP-tagged Shank N-termini coexpressed in 293T cells with T7-αCaMKII and/or HA-tagged G12V G-proteins; precipitated with RFP-trap beads, 2 h at 4 °C; IP buffer 50 mM Tris-HCl pH 8, 120 mM NaCl, 0.5% NP40, 1 mM EDTA; Western blot

T7-tagged αCaMKII (α-subunit of the calcium-/calmodulin dependent kinase II) (from UniProt P11275 1-478) (enzyme)
binding: binds
